Literature values in patent US20240374627A1, “A PHARMACEUTICAL COMPOSITION COMPRISING COMBINATION OF SITAGLIPTIN AND EMPAGLIFLOZIN” (UNISON PHARMACEUTICALS PVT. LTD., priority 2021, published 2024).
The name of at least one read-out is uncertain.

Settings: European assessment report of Jardiance

**Q.** For `OC[C@H]1O[C@@H](c2ccc(Cl)c(Cc3ccc(O[C@H]4CCOC4)cc3)c2)[C@H](O)[C@@H](O)[C@@H]1O` [Empagliflozin, (1S)-1,5-anhydro-1-(4-chloro-3-{4-[(3S)-tetrahydrofuran-3-yloxy]benzyl}phenyl)-D-glucitol], which intestinal permeability is on record?
**A.** low
